Measured values taken from patent US6723841B2, “Corticotropin-releasing factor2 receptors” (priority 1994, dated 2004).
pEC50: −log10 of the molar value. Not every detail of the peptide structures is certain; ends, links or a residue may be inferred. For some of these results: At least one structure is not confirmed: it was looked up by name or label, or the drawing left a doubt. Ends that are not written are not given here.

Columns and labels:
[1] = target: T1, human CRF1 receptor (Homo sapiens, UniProt P34998); assay: cAMP assay (adenylate cyclase stimulation) in cells transfected with CRF1 receptor; format: cell-based; settings: cAMP production, read-out: effective concentration of one-half maximal adenylate cyclase stimulation (EC50), human CRF1 receptor
T1 construct: expressed in transfected cells
T1 sequence (P34998 24-415): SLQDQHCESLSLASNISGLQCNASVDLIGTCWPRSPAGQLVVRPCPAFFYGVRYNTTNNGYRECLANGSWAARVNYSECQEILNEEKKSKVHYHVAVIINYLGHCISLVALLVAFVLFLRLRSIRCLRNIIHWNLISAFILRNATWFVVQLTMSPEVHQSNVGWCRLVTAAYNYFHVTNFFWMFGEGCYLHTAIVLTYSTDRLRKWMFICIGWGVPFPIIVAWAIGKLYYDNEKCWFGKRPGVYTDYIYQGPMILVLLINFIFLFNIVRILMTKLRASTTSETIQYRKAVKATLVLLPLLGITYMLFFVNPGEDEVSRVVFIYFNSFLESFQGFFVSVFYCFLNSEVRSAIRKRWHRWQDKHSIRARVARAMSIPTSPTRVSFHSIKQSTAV

[2] = system: human CRF2α receptor; assay: cAMP assay (adenylate cyclase stimulation) in cells transfected with CRF2α receptor; format: cell-based; settings: cAMP production, read-out: effective concentration of one-half maximal adenylate cyclase stimulation (EC50), human CRF2α receptor
Experimental: For agonist testing, compounds are added to wells with buffer only in order to identify compounds with intrinsic activity. […] Compounds are then assessed for their ability to inhibit the CRF-stimulated cAMP production in the transfected cells. Briefly, cells are plated and grown in DMEM containing 10% fetal bovine serum for 2-4 days in 24-well plates at 37° C. On the day of assay, the medium is removed by vacuum aspiration and 100 μl of DMEM, 10 mM MgCl2, 1 mM isobutylmethylxanthine (a phosphodiesterase inhibitor to inhibit the breakdown of cAMP produced) and 0.1% BSA (pH 7.2) are added to each well. CRF, related peptides and organic test molecules are added to individual wells. The plates are incubated at 37° C. for a period of 1 hour. Following incubation, the wells are aspirated, rinsed once with PBS and aspirated again. 300 μl of 95% Ethanol and 20 mM HCl (EtOH/HCl) are then added to each well and the plates incubated at −20° C. overnight to extract the produced cAMP. The EtOH/HCl is removed, placed in 1.5 ml polypropylene eppendorf tubes and the wells washed with an additional 200 μl of EtOH/HCl and pooled with the initial sample. […]

Row | Substance | pEC50 [1] | pEC50 [2]
1 | DLTFHLLREMLEMAKAEQEAEQAALNRLLLEEA-NH2 [α-helical oCRF(9-41)] | < 6.00 | 
2 | NDDPPISIDLTFHLLRNMIEMARIENEREQAGLNRKYLDEV-NH2 (C-terminus assumed) [Urotensin I] | 8.40 | 
3 | SEEPPISLDLTFHLLREVLEMARAEQLAQQAHSNRKLMEIG-OH [Gly41 r/hCRF-OH] | 6.10 | < 6.00
